Screen size: about 390,000 compounds; about 610 (0.16%) were called active. The inconclusive results got no clear call from the source; some entries with a clear call stand among them for comparison. The call rests on the fitted dose curve; in most records, active means well fitted inhibition curve with a large enough effect; inconclusive means small, poorly fitted or top-dose-only effect, or effect the other way, or another doubt; inactive means no such curve, though single readings can be large or run the other way. Potencies of inconclusive entries are doubtful fits and often do not repeat.
Test: Nrf2 qHTS screen for inhibitors: counterscreen for cytotoxicity
Settings: A549 ARE-Fluc cells, CellTiter-Fluor viability, 18-24 h; activity change, negative = cytotoxicity: at 46 µM (top of the series)
Procedure, shortened: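 A549 ARE-Fluc cells in 5% FBS OPTI-MEM, 5000 cells/well, rested 2 h then exposed to compounds in concentration-response for 18-24 h at 37 °C. Viability by CellTiter-Fluor fluorescence (Ex 405/Em 525) after 30 min; luciferase luminescence (BugLite, 15 min, RT) read afterwards.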
On the % scale 0 is the no-effect control and ±100 the full control effect; potency means the concentration at half of the fitted maximal effect.

| Structure (SMILES) | Potency | activity change, negative = cytotoxicity |
| --- | --- | --- |
| CCN1C(C(=O)c2ccccc2)=C(OC(=O)c2ccc(OC)cc2)c2ccccc2S1(=O)=O | inconclusive: 29.1 µM [falling, partial curve, poor fit] |  |
| CC(C)N(C(=O)[C@H]1C[C@H](CC(=O)NCc2ccco2)C(=O)N2CCc3c([nH]c4ccc(Cl)cc34)[C@]12C)C(C)C | inconclusive: 18.4 µM [falling, partial curve, poor fit] |  |
| CCCN1CCN(CCCNC(=S)Nc2ccc3nc(N4CCN(CC)CC4)cc(C)c3c2)CC1 | inconclusive: 8.2 µM [falling, partial curve] |  |
| Cc1cc(C)c(C)c(S(=O)(=O)N2CCN(CC(=O)c3c(N)n(Cc4ccccc4)c(=O)n(C)c3=O)CC2)c1C | inconclusive: 16.4 µM [falling, single point] |  |
| CCc1ccc([C@@H]2CC=C(C(=O)O)[C@H](c3ccc(C(C)(C)C)cc3)N2S(=O)(=O)c2ccc(C)cc2)cc1 | inconclusive: 32.6 µM [falling, single point] |  |
| COc1ccc(N2CCN(CCNC(=O)c3c(C)cc(=O)oc3C)CC2)cc1 | inconclusive: 16.4 µM [activator, partial curve, poor fit] |  |
| Cc1cccn2c(=O)c3cc(C(=O)NCCN4CCOCC4)c(=N)n(Cc4cccnc4)c3nc12 | inconclusive: 20.6 µM [falling, single point] |  |
| Cc1ccc(CN(C)C(=O)CN2C(=O)NC(c3ccccc3)(c3ccccc3)C2=O)c(C)c1 | inconclusive: 29.1 µM [falling, single point] |  |
| Cc1cc2c(s1)c1cnn(Cc3ccc(C)c(F)c3F)c(=O)c1n2C |  | inactive: -1.75% |
| COc1cccc(C(=O)O/N=C/c2ccc(Sc3ccc(C)cc3)nc2)c1 |  | inactive: -1.98% |
| O=C(CN1C(=O)CCC1=O)Nc1ccc(Br)cc1 |  | inactive: -14.8% |
| CCCNS(=O)(=O)c1cccn1-c1ncc(C(F)(F)F)cc1Cl |  | inactive: -6.56% |
| CCC(C)(C)NC(=O)C1CCN(S(=O)(=O)c2c(C)noc2/C=C/c2ccc(C)cc2)CC1 | inconclusive: 18.4 µM [activator, partial curve, poor fit] |  |
| CCOC(=O)N1CCC(n2c(SCC(=O)NCCC3=CCCCC3)nc3ccccc3c2=O)CC1 | inconclusive: 29.1 µM [falling, single point] |  |
| CCCCCCCCC1CC(C(=O)Nc2ccccc2)C(=O)O1 (stereo not given) | inconclusive: 29.1 µM [falling, single point] |  |
| Cc1nc2ccccc2n2c(-c3ccccc3)c3c(=O)n(C)c(=O)n(C)c3c12 | inconclusive: 25.9 µM [falling, single point] |  |
| N#CC(C(=O)OCc1ccccc1)c1nc2ccccc2nc1N1CCOCC1 (stereo not given) | inconclusive: 20.6 µM [falling, single point] |  |
| COc1cccc(NC(=O)COc2ccc(S(=O)(=O)NC(C)C)cc2)c1 | inconclusive: 32.6 µM [activator, partial curve, poor fit] |  |
| N#Cc1c(NC(=O)c2ccccc2Cl)n(Cc2ccccc2)c2nc3ccccc3nc12 | inconclusive: 29.1 µM [falling, partial curve, poor fit] |  |
| Nc1nonc1C(=O)NCCNC(=O)c1ccc(Cl)c(Cl)c1 |  | inactive: -0.383% |

| Structure (SMILES) | Potency | activity change, negative = cytotoxicity |
| --- | --- | --- |
| O=C(Nc1ccncc1)c1cccs1 |  | inactive: -5.36% |
| O=C(N=Nc1c(O)[nH]c2ccc(Br)cc12)c1cc(-c2cccs2)nc2ccccc12 | inconclusive: 29.1 µM [falling, single point] |  |
| N#C/C(=N\Nc1cccc(F)c1)C(=O)C1CC1 | inconclusive: 23.1 µM [falling, single point] |  |
| CCOC(=O)/C(C#N)=C/c1c(N2CCN(c3ccc(OC)cc3)CC2)nc2c(C)cccn2c1=O | inconclusive: 20.6 µM [falling, single point] |  |
| Cc1sc2ncnc(N3CCC(C(=O)NNC(=O)c4ccccc4Cl)CC3)c2c1C |  | inactive: -5.91% |
| NS(=O)(=O)c1ccc(Nc2ccc([N+](=O)[O-])c3nonc23)cc1 | inconclusive: 29.1 µM [falling, partial curve, poor fit] |  |
| CCc1c(C)c(C#N)c2[nH]c3ccccc3n2c1=S | inconclusive: 29.1 µM [falling, single point] |  |
| Cc1ccc(NC(=O)Nc2nc(-c3ccc(C)s3)cs2)cc1 | inconclusive: 29.1 µM [falling, partial curve, poor fit] |  |
| CCN1CCC2(CC1)N=C(c1ccc(F)cc1)C(=S)N2C(=O)c1ccc(C)cc1 | inconclusive: 29.1 µM [falling, single point] |  |
| CCc1noc(-c2ccc(NCc3ccccc3)c([N+](=O)[O-])c2)n1 |  | inactive: -1.56% |
| CCN(CC)CC(=O)Nc1ccc(/C(C)=N/NC2=NCCN2)cc1 | inconclusive: 16.4 µM [falling, partial curve] |  |
| Cc1ccc(-c2csc(NC(=O)c3cccc(S(=O)(=O)N4CCN(C)CC4)c3)n2)cc1 |  | inactive: -5.88% |
| Cc1nn(CCCC(=O)NCCc2ccc(Cl)cc2)c(=O)c2c1sc1ccccc12 | inconclusive: 23.1 µM [falling, single point] |  |
| COc1ccc2nc(N3CCC(O)CC3)c(C#N)cc2c1 | inconclusive: 29.1 µM [activator, single point] |  |
| COc1ccc(Cn2c(C(=O)O)c(CNCCc3ccco3)c3ccc(C)cc32)cc1 | inconclusive: 20.6 µM [falling, partial curve, poor fit] |  |
| COc1cc(C(=O)OCC(=O)N2CCCCC2C)ccc1OCc1c(C)noc1C (stereo not given) | inconclusive: 5.17 µM [activator, full curve, poor fit] |  |
| N=c1c(C(=O)NCC2CCCO2)cc2c(=O)n3ccccc3nc2n1CCCO (stereo not given) | inconclusive: 11.6 µM [activator, partial curve] |  |
| Cc1[nH]n(C2=NCCS2)c(=O)c1N=Nc1cccc(C(F)(F)F)c1 | inconclusive: 10.3 µM [falling, partial curve, poor fit] |  |
| CCN1CCN(c2ccc(S(=O)(=O)N3CCCCC3)cc2NC(=O)c2ccc(C)c(C)c2)CC1 | inconclusive: 20.6 µM [falling, single point] |  |
| COc1cc(/C=C2/SC(=S)N(Cc3ccccc3)C2=O)cc(Cl)c1O | inconclusive: 23.1 µM [falling, partial curve] |  |

In a second layout: results already given
Structure (SMILES)	Potency	activity change, negative = cytotoxicity
O=C(N=Nc1c(O)[nH]c2ccc(Br)cc12)c1cc(-c2cccs2)nc2ccccc12	inconclusive: 29.1 µM [falling, single point]	
CCOC(=O)/C(C#N)=C/c1c(N2CCN(c3ccc(OC)cc3)CC2)nc2c(C)cccn2c1=O	inconclusive: 20.6 µM [falling, single point]	
Cc1sc2ncnc(N3CCC(C(=O)NNC(=O)c4ccccc4Cl)CC3)c2c1C		inactive: -5.91%
NS(=O)(=O)c1ccc(Nc2ccc([N+](=O)[O-])c3nonc23)cc1	inconclusive: 29.1 µM [falling, partial curve, poor fit]	
Cc1ccc(NC(=O)Nc2nc(-c3ccc(C)s3)cs2)cc1	inconclusive: 29.1 µM [falling, partial curve, poor fit]	
Cc1ccc(-c2csc(NC(=O)c3cccc(S(=O)(=O)N4CCN(C)CC4)c3)n2)cc1		inactive: -5.88%
Cc1nn(CCCC(=O)NCCc2ccc(Cl)cc2)c(=O)c2c1sc1ccccc12	inconclusive: 23.1 µM [falling, single point]	
COc1cc(C(=O)OCC(=O)N2CCCCC2C)ccc1OCc1c(C)noc1C (stereo not given)	inconclusive: 5.17 µM [activator, full curve, poor fit]	
N=c1c(C(=O)NCC2CCCO2)cc2c(=O)n3ccccc3nc2n1CCCO (stereo not given)	inconclusive: 11.6 µM [activator, partial curve]	
Cc1[nH]n(C2=NCCS2)c(=O)c1N=Nc1cccc(C(F)(F)F)c1	inconclusive: 10.3 µM [falling, partial curve, poor fit]	
CCN1CCN(c2ccc(S(=O)(=O)N3CCCCC3)cc2NC(=O)c2ccc(C)c(C)c2)CC1	inconclusive: 20.6 µM [falling, single point]	

Source: PubChem BioAssay AID504648 (National Center for Advancing Translational Sciences (NCATS), 2011)
